Experimental data taken from the supplement of paper PMC10060354, “Discovery of a small molecule ligand of FRS2 that inhibits invasion and tumor growth” (Cellular Oncology, 2022).
Single values are uncertain, as repeats are few or missing.

Protein sequences, listed by entry. Tags and fused reporters are not part of them. Lines headed by an entry give the natural chain unless they say otherwise; changes in a name come on top.
UniProt Q96A49: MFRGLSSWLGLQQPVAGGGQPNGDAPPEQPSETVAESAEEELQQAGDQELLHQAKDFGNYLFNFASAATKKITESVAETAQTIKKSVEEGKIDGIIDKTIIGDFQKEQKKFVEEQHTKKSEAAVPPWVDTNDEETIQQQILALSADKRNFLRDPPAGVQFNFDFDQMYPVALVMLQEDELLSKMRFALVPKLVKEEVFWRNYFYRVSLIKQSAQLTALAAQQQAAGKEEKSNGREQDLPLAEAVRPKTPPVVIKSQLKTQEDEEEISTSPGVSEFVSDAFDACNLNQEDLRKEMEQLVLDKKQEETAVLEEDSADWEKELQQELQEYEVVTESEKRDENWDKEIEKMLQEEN
UniProt Q96DH6: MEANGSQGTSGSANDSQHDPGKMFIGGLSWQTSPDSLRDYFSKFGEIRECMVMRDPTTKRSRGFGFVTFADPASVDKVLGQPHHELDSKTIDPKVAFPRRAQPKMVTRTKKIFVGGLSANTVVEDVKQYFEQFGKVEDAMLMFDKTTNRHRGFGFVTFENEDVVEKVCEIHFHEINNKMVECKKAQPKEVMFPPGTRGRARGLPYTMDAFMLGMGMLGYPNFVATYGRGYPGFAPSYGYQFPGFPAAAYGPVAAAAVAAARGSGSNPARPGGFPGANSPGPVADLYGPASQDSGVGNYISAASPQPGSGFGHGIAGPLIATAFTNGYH
UniProt Q96JM3: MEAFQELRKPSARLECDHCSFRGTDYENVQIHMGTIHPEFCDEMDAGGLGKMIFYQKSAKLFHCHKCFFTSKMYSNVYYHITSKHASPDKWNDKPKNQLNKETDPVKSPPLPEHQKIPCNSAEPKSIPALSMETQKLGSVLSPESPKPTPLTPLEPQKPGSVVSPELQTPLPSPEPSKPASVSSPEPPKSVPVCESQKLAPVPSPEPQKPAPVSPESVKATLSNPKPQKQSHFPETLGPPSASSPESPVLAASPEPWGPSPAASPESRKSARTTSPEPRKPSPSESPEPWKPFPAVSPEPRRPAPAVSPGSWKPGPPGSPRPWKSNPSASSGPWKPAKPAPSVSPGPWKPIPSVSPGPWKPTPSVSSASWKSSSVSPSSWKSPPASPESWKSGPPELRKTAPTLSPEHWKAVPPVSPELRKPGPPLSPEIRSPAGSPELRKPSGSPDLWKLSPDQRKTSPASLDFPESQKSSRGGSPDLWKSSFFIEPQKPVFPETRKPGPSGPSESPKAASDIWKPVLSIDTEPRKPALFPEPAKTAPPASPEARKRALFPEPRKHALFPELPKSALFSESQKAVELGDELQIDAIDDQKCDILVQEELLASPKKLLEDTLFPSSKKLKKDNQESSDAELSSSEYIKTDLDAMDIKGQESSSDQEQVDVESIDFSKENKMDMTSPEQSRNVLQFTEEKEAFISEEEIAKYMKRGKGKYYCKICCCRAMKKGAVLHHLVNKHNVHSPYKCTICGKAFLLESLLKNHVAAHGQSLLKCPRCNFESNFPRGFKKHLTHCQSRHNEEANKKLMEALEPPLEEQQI
UniProt Q9Y3D7: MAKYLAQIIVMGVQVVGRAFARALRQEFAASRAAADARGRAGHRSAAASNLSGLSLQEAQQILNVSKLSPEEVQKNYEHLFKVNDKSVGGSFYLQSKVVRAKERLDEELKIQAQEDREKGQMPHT
UniProt P09486: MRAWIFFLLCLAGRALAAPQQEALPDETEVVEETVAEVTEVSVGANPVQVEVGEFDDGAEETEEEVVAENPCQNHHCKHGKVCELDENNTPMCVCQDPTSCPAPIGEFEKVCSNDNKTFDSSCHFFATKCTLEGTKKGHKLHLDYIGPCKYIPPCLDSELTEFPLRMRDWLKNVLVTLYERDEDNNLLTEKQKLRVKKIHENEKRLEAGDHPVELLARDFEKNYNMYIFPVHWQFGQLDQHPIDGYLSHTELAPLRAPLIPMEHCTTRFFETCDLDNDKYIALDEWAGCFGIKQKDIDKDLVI
UniProt Q6NVY1: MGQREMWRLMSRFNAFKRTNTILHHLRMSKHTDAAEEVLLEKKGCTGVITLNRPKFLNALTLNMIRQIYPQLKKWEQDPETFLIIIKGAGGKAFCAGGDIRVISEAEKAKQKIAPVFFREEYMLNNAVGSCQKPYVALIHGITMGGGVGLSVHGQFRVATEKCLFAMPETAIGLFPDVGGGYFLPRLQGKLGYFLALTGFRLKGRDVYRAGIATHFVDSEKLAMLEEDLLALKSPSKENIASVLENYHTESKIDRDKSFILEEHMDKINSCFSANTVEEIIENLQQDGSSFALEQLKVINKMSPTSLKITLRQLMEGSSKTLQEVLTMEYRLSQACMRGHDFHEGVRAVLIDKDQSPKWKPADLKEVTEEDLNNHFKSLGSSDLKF
UniProt Q9Y297: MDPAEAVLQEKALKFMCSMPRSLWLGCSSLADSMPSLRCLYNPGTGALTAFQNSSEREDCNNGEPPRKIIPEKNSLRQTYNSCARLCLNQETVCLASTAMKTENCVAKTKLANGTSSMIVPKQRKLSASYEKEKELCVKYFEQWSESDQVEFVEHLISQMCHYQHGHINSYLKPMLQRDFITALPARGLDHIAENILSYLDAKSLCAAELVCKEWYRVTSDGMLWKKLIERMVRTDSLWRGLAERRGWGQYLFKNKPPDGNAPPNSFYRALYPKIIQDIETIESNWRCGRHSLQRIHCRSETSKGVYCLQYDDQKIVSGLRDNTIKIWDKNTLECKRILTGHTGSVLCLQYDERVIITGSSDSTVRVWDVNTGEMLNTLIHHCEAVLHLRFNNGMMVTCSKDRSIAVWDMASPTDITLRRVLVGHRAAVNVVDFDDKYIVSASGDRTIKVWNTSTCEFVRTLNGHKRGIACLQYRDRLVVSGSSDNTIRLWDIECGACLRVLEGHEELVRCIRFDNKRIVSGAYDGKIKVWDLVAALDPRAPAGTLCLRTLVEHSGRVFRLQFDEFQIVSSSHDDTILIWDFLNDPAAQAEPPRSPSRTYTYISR
UniProt O95104: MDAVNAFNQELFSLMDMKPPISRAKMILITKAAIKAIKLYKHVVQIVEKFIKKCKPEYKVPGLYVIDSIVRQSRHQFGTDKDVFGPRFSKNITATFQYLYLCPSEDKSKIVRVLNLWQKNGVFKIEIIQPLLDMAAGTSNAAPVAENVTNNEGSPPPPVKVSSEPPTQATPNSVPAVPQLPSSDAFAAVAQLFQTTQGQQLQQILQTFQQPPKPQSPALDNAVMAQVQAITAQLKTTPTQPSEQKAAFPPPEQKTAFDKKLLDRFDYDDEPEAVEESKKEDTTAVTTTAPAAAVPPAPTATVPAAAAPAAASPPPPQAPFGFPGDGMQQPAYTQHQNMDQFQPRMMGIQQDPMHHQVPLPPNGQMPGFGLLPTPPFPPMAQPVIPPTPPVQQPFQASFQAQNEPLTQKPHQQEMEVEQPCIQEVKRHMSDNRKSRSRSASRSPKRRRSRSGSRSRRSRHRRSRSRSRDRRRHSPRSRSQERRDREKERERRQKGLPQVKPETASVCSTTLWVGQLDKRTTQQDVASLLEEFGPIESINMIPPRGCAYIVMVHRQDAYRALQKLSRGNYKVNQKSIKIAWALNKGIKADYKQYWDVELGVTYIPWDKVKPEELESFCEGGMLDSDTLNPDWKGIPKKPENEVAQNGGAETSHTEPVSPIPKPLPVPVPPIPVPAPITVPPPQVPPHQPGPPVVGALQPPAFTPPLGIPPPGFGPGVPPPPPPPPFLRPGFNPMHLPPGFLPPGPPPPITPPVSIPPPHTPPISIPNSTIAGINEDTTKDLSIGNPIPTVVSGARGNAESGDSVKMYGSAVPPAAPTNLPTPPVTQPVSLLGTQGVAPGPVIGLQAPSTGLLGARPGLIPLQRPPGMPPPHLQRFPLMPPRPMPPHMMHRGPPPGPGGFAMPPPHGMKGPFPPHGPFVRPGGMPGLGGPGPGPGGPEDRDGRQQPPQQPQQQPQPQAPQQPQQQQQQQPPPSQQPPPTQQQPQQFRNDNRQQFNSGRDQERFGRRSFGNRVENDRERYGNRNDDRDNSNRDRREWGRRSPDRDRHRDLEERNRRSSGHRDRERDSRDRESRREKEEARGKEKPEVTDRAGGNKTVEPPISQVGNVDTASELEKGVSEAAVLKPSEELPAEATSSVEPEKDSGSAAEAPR
UniProt P19532: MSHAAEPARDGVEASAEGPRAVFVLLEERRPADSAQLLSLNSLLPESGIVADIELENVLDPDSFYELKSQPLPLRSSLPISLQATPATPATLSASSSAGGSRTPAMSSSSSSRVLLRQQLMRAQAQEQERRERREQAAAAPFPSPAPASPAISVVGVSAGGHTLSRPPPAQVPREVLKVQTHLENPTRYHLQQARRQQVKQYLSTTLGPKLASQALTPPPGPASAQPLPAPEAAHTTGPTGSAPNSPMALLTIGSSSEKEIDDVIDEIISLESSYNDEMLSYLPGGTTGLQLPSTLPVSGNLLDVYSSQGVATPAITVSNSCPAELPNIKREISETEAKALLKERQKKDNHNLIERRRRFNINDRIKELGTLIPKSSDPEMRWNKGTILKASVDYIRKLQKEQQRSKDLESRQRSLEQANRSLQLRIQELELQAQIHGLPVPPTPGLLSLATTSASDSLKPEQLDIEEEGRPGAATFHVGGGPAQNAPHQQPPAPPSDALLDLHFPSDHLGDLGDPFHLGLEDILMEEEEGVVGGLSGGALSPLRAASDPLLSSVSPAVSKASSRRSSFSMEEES
UniProt Q9UFN0: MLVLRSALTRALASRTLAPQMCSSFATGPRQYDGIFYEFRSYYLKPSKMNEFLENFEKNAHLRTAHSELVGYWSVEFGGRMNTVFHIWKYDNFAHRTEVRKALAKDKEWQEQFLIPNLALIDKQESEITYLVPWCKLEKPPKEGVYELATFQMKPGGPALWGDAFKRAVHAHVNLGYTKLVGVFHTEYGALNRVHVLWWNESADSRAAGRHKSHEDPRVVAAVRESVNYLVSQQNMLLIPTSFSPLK
UniProt Q9Y692: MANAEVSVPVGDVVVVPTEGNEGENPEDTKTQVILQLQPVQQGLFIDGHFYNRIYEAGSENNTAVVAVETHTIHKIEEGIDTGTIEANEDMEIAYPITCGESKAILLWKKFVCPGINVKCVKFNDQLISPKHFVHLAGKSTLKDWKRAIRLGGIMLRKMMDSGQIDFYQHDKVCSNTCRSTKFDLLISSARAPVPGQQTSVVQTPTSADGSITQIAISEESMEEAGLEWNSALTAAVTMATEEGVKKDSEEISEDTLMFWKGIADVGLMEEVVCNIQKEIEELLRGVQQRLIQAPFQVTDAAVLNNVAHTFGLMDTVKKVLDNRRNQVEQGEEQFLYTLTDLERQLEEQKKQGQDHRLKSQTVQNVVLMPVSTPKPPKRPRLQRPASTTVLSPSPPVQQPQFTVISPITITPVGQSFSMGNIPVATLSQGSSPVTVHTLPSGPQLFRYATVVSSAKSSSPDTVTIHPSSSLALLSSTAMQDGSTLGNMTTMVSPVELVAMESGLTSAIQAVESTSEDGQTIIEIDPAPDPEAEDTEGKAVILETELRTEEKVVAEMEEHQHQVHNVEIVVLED
UniProt Q8N766: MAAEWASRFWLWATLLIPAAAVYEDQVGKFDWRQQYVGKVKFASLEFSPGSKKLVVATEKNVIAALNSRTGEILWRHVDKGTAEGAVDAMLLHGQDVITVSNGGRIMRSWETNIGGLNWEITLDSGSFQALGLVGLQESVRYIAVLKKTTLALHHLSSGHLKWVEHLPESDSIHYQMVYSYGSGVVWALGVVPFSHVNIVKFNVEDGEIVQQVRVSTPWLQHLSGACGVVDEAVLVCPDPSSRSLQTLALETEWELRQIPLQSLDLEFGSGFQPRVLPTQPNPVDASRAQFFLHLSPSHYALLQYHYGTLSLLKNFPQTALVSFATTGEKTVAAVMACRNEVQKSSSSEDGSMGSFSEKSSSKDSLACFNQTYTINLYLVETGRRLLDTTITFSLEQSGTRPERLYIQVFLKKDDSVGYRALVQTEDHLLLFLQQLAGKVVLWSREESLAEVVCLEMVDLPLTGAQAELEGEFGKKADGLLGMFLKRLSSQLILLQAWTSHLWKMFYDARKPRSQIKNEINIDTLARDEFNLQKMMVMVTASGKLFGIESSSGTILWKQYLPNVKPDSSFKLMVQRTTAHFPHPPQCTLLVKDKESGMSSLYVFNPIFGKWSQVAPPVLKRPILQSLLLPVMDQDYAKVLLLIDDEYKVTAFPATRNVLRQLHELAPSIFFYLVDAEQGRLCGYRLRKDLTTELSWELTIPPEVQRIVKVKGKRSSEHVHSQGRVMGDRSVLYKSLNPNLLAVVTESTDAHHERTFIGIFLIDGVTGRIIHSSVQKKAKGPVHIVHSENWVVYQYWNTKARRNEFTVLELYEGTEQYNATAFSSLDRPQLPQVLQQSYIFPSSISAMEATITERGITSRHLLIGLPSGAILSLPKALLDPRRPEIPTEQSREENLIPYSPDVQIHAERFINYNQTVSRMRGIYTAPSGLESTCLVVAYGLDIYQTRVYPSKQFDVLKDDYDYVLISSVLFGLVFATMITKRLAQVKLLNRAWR
UniProt Q4VC31: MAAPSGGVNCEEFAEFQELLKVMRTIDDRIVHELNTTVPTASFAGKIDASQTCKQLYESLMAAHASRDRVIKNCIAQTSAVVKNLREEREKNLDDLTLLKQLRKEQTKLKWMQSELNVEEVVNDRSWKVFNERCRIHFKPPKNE

Compound: [O-][N+](C(C1=C(C(O)=C2)NC(C(C=C3)=CC=C3Cl)C4C1C=CC4)=C2Cl)=O
Assay: melting temperature shift (compound 7 minus DMSO); higher = compound stabilises the protein
Conditions: 10 µM
Protocol: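 Thermal proteome profiling (TMT mass spectrometry) in intact DAOY medulloblastoma cells or DAOY lysates treated with 10 µM compound 7 or DMSO, heated at 10 temperatures from 40.5 to 73.8 °C for 3 min. Melting curves were fitted with the Bioconductor TPP package, and the melting point difference between compound and vehicle is reported per protein (single curve per condition).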

[1] = system: DAOY cell lysate, treatment time: 20 min, 4 °C
[2] = system: intact DAOY cells, treatment time: 90 min, 37 °C

| Target | melting temperature shift [1] [°C] | melting temperature shift [2] [°C] |
| --- | --- | --- |
| ATP1A1 (UniProt P05023) | 1.78 | -0.286 |
| ANXA3 (UniProt P12429) | -0.147 | 0.0125 |
| TXNL4A (UniProt P83876) | -0.0965 | -0.0301 |
| SYAP1 (UniProt Q96A49) | 0.603 | -0.535 |
| DNAJB11 (UniProt Q9UBS4) | 1.34 | 0.48 |
| UniProt P52815 | -1.62 | -0.0312 |
| UniProt Q96MY1 | -0.48 | -2.06 |
| RPL27 (UniProt P61353) | -0.0959 | -0.169 |
| UniProt P31323 | -0.301 | -1.36 |
| CBR3 (UniProt O75828) | -0.748 | -0.239 |
| MSI2 (UniProt Q96DH6) | 0.69 | -0.0819 |
| CHAMP1 (UniProt Q96JM3) | 1.19 | -0.283 |
| SMC3 (UniProt Q9UQE7) | 0.119 | -0.791 |
| XPO4 (UniProt Q9C0E2) | -0.612 | -1.01 |
| SLC7A6 (UniProt Q92536) |  | -1.8 |
| UniProt Q9Y3D7 | 0.0489 | 0.114 |
| UniProt P0C7P4 |  | -1.7 |
| UniProt P09486 | 1.26 |  |
| HIBCH (UniProt Q6NVY1) | -0.252 | -0.683 |
| UniProt Q7Z3J3 |  | 0.0249 |

| Target | melting temperature shift [1] [°C] | melting temperature shift [2] [°C] |
| --- | --- | --- |
| PDS5A (UniProt Q29RF7) | -0.0533 | -2.09 |
| NDUFV1 (UniProt P49821) | 0.806 | -0.796 |
| TM7SF3 (UniProt Q9NS93) | -3.23 |  |
| SP3 (UniProt Q02447) |  | 2.21 |
| UniProt Q9Y297 |  | -1.65 |
| COPB1 (UniProt P53618) | -0.572 | -0.0444 |
| UniProt Q86VD1 |  | -2.01 |
| UniProt Q03113 | -1.89 |  |
| SH3GL2 (UniProt Q99962) |  | -0.378 |
| SRA1 (UniProt Q9HD15) | 2.05 | -0.625 |
| UniProt P0CAP2 | -1.5 | 0.514 |
| OLA1 (UniProt Q9NTK5) | -0.39 | -0.778 |
| EIF3E (UniProt P60228) | -0.684 | 0.138 |
| SCAF4 (UniProt O95104) | 0.0797 | -1.04 |
| UniProt Q9NZR1 | 0.783 | 3.97 |
| UniProt P19532 | -0.121 | -2 |
| UniProt O60234 |  | -5.79 |
| NIPSNAP3A (UniProt Q9UFN0) | 2.62 |  |
| P4HB (UniProt P07237) | 1.46 |  |
| IMPAD1 (UniProt Q9NX62) | 2.82 | 0.721 |

| Target | melting temperature shift [1] [°C] | melting temperature shift [2] [°C] |
| --- | --- | --- |
| UniProt P03915 | 0.114 |  |
| UniProt Q9Y4K1 | 0.69 |  |
| GMEB1 (UniProt Q9Y692) | -1.44 |  |
| WTAP (UniProt Q15007) | 1.47 | 1.01 |
| UniProt Q86XE0 |  | -2.79 |
| NHSL1 (UniProt Q5SYE7) | 0.102 | -3.1 |
| ZNF207 (UniProt O43670) | -2.84 | -1.9 |
| TANGO6 (UniProt Q9C0B7) |  | -0.248 |
| ERP29 (UniProt P30040) | 0.593 | 0.209 |
| PDZD8 (UniProt Q8NEN9) |  | -0.0566 |
| DDR2 (UniProt Q16832) | -1.23 | 0.0672 |
| ADPGK (UniProt Q9BRR6) | 0.974 | 0.234 |
| EXOC2 (UniProt Q96KP1) | -0.0735 | 1.11 |
| UniProt Q9UP52 |  | 2.71 |
| EMC1 (UniProt Q8N766) | 0.791 | -0.305 |
| CCDC58 (UniProt Q4VC31) | -0.835 | -3.94 |
| UniProt Q9UKG9 | 3.2 | 1.23 |
| UniProt Q6SPF0 | 3.13 |  |
